Paper PMC7206012

Amino acid sequences for entries named in this document (tags omitted). A change or cut given only in a name is not applied to a line headed by its entry.
UniProt Q96RN5: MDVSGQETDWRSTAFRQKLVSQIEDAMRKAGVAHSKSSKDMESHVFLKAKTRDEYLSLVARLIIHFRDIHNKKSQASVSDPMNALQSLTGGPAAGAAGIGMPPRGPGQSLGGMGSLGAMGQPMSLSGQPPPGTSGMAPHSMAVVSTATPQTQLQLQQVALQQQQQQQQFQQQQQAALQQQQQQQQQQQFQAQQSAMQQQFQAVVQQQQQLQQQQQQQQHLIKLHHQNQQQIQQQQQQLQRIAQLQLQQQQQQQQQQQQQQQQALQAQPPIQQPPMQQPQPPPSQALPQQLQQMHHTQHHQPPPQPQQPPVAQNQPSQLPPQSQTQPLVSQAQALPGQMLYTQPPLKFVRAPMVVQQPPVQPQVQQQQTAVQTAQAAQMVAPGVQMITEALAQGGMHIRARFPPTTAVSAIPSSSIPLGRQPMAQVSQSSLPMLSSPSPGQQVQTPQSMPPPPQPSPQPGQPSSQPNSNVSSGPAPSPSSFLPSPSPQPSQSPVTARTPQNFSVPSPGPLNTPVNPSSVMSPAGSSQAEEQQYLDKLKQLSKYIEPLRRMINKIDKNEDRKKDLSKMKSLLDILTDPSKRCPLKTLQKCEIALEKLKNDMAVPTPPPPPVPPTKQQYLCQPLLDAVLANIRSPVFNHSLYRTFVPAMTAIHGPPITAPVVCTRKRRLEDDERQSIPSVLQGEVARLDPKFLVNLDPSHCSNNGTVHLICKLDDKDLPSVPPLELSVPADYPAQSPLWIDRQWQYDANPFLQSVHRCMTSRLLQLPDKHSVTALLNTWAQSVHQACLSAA
UniProt Q9P219: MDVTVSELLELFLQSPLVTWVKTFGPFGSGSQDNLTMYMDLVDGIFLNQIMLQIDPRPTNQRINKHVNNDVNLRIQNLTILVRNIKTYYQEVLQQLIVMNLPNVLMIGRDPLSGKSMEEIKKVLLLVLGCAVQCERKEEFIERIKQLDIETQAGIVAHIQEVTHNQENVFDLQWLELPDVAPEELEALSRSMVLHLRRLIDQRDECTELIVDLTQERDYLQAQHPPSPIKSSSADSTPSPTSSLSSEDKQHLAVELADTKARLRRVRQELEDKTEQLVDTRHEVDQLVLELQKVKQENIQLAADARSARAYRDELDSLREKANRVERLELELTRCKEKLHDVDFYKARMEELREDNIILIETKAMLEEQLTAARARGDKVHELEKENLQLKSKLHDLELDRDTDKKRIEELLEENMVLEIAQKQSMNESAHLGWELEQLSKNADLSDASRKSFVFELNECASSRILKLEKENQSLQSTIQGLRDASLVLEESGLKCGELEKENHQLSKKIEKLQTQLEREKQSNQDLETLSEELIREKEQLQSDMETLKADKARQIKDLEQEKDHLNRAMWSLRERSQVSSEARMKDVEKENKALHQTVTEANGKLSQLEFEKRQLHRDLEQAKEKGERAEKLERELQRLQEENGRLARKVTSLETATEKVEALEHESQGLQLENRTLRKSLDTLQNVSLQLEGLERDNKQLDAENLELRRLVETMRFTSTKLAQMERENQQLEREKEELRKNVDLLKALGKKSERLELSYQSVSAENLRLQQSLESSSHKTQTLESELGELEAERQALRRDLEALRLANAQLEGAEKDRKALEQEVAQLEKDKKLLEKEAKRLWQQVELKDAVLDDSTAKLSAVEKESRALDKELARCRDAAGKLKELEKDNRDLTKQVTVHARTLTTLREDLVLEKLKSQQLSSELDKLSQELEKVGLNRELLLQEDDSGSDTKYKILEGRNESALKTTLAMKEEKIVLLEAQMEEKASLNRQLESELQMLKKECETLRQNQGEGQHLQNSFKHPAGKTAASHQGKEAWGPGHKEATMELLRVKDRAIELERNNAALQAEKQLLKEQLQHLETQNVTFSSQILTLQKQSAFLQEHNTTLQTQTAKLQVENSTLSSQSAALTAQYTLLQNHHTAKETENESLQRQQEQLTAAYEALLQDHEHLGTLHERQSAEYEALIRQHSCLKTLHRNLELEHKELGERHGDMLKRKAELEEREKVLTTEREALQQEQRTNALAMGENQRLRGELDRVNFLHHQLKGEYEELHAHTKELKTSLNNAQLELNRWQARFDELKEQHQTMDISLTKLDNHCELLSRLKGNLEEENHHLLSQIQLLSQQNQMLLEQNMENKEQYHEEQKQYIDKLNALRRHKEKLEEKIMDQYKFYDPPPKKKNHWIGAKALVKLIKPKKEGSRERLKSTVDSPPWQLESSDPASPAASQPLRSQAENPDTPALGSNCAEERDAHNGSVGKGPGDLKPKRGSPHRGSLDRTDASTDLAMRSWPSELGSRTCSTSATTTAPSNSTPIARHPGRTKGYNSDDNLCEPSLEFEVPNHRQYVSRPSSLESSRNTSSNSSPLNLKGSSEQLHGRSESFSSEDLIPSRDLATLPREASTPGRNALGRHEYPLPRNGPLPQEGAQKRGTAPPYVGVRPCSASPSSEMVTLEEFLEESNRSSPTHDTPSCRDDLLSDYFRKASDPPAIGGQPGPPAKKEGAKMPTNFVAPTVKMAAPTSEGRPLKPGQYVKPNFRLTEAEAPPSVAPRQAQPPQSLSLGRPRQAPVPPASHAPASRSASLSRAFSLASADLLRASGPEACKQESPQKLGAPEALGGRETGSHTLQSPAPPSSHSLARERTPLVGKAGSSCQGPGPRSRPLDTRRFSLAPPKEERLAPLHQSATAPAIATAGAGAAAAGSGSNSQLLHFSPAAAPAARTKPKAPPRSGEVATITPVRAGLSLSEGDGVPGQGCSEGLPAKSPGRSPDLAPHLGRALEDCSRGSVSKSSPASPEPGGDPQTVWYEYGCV

Target: T1, triple epitope (S-peptide, FLAG, and streptavidin-binding peptide)-tagged TRIM11 (human) (UniProt Q96F44)
T1 sequence: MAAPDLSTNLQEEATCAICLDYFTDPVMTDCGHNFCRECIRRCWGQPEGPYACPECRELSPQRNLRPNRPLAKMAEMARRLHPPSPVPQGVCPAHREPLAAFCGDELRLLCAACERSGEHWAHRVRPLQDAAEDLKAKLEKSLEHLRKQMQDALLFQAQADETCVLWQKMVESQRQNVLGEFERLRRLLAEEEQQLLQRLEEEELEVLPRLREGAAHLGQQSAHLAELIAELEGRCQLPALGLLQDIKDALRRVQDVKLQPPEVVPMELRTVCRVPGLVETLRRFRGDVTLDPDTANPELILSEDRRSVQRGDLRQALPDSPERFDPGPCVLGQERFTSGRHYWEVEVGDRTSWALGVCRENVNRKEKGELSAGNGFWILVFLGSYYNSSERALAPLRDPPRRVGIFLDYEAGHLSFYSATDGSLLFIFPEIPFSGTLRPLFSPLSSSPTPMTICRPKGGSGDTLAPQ
Experiment: affinity purification with mass spectrometry; tandem affinity purification of SFB-TRIM11 from CNE2 lysate (NETN buffer): streptavidin beads, biotin elution, S protein beads; SDS-PAGE bands analysed by mass spectrometry

Q: How did the binding turn out when ARC105 (from UniProt Q96RN5) was run?
A: binds

Q: How did the binding turn out when “Daple (endogenous) (from UniProt Q9P219 1-2028)” was run?
A: binds

These are yes or no findings as the source states them, for the method shown. In cells and extracts the contact can be indirect. A yes stands for co-enrichment or nearness to the bait. Other partners may have been found. Sequences can lack the tags named with a protein.
